Assay results taken from publication PMC13598245.
These are yes or no findings as the source states them, for the method shown. Binding can be weak; no strength is given.

Tests used:
Test in all cases: fluorescence polarisation; fluorescence anisotropy; 2x serial dilution of purified protein mixed with 50 nM N-terminally FITC-conjugated peptide, room temperature, 15 min, 384-well plate; one-site binding model, n = 3; both purified
[1] = molecular target: T1, MAST1^153-166 R156E R158E (Mus musculus)
T1 sequence (peptide, FITC on the N-terminus): PAVEPESRSLSPGR

[2] = molecular target: T2, MAST1^153-166 R156E R158E L162D (Mus musculus)
T2 sequence (peptide, FITC on the N-terminus): PAVEPESRSDSPGR

[3] = molecular target: T3, MAST1^153-166 WT (Mus musculus)
T3 sequence (peptide, FITC on the N-terminus): PAVRPRSRSLSPGR

binding [1]: binds weakly
binding [2]: binds weakly
binding [3]: binds weakly
Substance: MAST1^DK ΔS90 ΔS161 (Mus musculus) (domain or fragment)
